# Experimental data as given in the supplement of paper PMC12819154, “High-throughput peptide-centric local stability assay extends protein–ligand identification to membrane proteins, tissues and bacteria” (Nature Structural & Molecular Biology, 2025).
# The chains behind the UniProt entries cited, without tags or fusion partners. Where a name states a change or a piece, a line headed by the entry shows the natural chain unless it says otherwise.
# UniProt Q9NUP1: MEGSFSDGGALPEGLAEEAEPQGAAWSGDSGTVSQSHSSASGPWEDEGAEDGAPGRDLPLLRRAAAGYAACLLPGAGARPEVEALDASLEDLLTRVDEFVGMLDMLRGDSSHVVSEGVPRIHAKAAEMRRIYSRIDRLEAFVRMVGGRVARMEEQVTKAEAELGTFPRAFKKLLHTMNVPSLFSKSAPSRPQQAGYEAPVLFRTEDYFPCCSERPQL
# UniProt Q9NSK0: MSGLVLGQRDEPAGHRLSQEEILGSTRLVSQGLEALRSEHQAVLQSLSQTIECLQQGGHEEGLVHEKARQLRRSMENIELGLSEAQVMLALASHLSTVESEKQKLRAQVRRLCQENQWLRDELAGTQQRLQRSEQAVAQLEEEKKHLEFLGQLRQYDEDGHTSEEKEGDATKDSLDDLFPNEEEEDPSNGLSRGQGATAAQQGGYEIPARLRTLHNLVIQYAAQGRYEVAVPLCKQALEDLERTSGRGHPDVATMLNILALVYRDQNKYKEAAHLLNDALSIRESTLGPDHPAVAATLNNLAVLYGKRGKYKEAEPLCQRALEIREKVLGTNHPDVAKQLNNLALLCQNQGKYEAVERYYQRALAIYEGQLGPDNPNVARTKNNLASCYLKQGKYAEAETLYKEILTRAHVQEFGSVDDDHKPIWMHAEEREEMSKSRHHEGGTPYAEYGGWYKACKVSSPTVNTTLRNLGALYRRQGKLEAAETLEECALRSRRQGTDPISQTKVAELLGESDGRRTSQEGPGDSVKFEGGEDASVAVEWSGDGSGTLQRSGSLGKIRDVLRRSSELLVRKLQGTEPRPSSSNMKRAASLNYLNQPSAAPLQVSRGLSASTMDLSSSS
# UniProt Q9NPQ8: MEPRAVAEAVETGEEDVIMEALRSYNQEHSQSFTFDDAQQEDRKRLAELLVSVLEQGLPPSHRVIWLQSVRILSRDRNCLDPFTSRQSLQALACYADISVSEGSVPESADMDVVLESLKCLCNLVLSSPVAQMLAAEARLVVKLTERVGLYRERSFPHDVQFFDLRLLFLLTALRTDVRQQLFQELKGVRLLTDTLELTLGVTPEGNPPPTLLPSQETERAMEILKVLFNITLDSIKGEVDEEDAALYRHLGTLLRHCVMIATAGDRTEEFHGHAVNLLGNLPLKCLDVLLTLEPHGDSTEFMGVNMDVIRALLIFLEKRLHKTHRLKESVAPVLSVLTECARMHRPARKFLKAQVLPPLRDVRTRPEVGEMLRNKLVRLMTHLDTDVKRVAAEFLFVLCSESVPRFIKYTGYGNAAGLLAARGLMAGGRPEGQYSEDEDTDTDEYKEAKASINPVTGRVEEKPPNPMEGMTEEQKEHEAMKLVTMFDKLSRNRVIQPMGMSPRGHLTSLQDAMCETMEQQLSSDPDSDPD
# UniProt Q9NS23: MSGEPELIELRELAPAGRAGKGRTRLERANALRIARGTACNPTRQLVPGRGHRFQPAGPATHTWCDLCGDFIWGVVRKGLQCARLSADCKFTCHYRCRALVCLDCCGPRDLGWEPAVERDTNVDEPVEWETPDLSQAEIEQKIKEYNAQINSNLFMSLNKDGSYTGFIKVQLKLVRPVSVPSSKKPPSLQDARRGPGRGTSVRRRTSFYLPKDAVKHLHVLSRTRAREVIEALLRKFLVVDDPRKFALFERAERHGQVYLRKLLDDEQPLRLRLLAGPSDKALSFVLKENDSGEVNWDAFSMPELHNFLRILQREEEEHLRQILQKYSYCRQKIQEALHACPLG
# UniProt Q9NU23: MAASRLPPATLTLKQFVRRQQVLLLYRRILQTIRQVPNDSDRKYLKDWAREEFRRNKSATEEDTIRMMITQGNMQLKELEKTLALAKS
# UniProt Q9NPJ8: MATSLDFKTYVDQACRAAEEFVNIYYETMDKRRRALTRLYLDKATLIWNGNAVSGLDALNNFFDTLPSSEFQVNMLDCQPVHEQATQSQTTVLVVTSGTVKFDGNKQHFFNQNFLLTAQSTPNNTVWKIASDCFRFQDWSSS
# UniProt Q9NQ88: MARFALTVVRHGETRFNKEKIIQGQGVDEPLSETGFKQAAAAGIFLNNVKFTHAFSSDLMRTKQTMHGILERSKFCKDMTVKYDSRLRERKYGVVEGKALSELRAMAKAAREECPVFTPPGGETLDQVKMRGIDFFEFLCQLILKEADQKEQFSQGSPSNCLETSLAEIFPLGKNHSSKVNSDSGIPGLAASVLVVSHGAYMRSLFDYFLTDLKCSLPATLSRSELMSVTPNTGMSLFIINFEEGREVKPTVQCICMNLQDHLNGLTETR
# UniProt Q9NWB1: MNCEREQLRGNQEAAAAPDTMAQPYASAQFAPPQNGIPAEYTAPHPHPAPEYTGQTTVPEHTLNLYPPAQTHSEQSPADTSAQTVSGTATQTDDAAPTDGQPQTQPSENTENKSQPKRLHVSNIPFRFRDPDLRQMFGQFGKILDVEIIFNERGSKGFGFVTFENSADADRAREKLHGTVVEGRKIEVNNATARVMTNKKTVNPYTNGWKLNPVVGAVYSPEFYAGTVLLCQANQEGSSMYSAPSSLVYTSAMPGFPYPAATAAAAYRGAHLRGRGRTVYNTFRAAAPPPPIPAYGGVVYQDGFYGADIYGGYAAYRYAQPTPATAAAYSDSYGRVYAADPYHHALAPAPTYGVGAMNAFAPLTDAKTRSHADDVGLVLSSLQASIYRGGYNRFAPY
# UniProt Q9NQE9: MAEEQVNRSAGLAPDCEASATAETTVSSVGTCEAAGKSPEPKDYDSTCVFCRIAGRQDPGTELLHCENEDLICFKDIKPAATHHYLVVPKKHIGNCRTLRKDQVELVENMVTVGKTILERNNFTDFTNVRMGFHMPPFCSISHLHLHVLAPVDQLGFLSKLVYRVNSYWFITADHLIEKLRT
# UniProt Q9NQX3: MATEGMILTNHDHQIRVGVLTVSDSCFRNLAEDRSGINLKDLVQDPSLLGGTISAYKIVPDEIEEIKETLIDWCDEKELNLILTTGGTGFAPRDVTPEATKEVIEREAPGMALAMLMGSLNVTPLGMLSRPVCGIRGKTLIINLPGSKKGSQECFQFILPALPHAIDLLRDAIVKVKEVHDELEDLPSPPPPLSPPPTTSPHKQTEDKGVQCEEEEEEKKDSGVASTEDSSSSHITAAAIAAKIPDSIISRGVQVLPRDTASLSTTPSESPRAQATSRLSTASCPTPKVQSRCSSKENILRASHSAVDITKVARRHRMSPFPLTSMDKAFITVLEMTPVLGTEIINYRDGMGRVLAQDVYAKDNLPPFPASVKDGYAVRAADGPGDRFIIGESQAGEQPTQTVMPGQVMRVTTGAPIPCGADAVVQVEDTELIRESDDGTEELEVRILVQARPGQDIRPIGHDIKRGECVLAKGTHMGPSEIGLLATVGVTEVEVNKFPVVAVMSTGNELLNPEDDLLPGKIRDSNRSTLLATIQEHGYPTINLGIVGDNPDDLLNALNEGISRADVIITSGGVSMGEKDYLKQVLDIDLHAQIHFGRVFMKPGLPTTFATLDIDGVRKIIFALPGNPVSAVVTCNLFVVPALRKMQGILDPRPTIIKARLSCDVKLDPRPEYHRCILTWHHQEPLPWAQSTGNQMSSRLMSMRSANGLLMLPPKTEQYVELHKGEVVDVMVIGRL
# UniProt Q9NWY4: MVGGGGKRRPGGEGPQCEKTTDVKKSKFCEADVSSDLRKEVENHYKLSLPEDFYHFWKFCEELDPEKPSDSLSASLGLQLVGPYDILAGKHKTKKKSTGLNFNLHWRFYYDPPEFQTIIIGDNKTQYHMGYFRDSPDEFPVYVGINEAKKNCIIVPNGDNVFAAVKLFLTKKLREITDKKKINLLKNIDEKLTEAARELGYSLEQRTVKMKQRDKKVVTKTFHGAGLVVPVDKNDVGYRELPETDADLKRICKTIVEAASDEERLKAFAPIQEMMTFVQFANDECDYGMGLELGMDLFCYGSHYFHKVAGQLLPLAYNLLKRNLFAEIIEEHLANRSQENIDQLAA
# UniProt Q9NV66: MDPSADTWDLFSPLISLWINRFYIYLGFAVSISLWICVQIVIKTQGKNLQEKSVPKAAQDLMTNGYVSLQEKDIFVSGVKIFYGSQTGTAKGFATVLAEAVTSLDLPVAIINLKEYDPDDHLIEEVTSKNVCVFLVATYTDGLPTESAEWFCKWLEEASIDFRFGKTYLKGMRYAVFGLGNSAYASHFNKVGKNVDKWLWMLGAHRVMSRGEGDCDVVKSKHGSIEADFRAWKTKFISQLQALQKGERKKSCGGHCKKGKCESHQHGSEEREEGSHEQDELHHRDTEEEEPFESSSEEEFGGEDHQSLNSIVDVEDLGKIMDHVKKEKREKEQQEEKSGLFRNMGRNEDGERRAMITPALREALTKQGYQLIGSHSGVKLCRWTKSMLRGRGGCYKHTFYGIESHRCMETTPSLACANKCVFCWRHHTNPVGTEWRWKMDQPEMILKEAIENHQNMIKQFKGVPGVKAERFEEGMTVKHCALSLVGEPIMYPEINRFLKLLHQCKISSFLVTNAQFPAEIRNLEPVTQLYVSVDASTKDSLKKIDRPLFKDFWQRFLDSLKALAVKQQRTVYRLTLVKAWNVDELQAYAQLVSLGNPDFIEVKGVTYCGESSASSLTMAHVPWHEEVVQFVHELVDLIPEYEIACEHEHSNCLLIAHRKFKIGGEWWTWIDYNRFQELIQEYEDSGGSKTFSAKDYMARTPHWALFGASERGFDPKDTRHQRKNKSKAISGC
# UniProt Q9NUX5: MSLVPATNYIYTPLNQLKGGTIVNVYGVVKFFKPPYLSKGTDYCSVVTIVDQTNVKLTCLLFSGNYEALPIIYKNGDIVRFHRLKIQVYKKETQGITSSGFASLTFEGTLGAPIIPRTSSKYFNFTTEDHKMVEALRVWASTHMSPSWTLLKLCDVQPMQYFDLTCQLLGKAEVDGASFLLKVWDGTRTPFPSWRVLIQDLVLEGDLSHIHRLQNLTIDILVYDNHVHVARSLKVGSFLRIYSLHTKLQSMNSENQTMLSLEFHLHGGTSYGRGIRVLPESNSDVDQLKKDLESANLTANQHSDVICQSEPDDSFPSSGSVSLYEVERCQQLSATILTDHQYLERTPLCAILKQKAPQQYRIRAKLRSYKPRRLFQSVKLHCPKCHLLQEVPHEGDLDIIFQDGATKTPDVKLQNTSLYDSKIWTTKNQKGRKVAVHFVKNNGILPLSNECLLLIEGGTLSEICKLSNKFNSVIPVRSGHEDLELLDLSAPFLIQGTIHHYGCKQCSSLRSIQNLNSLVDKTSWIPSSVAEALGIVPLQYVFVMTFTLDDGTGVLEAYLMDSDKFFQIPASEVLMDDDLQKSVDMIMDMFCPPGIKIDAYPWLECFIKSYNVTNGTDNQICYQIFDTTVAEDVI
# UniProt Q9NQZ5: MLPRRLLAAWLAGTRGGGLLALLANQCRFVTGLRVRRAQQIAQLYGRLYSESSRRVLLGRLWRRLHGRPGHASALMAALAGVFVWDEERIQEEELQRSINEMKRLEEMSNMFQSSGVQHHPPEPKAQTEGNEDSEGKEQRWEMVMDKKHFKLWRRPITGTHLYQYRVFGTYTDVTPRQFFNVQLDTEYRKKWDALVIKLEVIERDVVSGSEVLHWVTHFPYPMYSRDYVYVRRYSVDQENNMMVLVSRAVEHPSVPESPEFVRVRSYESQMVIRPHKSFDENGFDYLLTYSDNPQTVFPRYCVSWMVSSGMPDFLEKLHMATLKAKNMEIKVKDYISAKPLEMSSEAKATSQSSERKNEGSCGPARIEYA
# UniProt Q9NRG4: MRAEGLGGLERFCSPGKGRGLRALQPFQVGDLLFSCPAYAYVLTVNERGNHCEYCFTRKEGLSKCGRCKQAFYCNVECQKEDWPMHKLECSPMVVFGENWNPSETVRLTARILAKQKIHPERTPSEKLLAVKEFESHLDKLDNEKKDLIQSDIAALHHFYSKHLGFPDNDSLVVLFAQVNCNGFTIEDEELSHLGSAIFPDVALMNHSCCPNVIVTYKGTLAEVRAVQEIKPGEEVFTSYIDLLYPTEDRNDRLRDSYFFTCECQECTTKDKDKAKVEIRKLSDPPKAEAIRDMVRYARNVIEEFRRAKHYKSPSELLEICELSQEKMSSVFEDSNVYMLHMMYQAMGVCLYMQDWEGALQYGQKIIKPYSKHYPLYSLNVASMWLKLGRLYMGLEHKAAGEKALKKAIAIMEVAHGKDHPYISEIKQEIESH
# UniProt Q9NQ89: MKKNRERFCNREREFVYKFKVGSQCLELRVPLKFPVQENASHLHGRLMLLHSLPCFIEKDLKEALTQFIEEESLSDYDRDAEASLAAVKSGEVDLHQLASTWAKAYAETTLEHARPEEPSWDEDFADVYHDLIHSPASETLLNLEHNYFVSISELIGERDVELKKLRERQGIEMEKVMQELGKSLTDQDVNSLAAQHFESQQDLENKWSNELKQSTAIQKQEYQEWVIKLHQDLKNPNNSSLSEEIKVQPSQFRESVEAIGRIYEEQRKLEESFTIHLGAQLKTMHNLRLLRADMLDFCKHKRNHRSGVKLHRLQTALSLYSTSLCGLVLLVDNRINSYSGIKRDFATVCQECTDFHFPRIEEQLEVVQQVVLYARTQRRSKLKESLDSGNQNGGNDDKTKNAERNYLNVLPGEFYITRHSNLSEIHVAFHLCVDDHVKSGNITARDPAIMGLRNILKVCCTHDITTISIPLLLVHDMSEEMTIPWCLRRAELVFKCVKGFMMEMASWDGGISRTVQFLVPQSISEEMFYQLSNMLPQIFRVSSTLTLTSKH
# The list shows a part of the results. Small differences around the control level are noise.
# Compound: Cc1nc(Nc2ncc(C(=O)Nc3c(C)cccc3Cl)s2)cc(N2CCN(CCO)CC2)n1 [dasatinib]
# Assay: log2 fold change of tryptic peptide abundance, ligand vs vehicle (limited proteolysis) (log2 ratio); higher = more trypsin-susceptible (destabilized)
# Conditions: ligand concentration: 5 uM; sample: K562 cleared lysate
row,Target,log2 fold change
1,"SDF2L1 (peptide sequence: TGAELVTCGSVLKLLNTHHR, peptide start residue: 31) (UniProt Q9HCN8)",0.21
2,"UniProt Q9NUP1 (peptide sequence: AEAELGTFPR, peptide start residue: 159)",-0.18
3,"KLC4 (peptide sequence: KLQGTEPRPSSSNMK, peptide start residue: 572) (UniProt Q9NSK0)",0.125
4,"RIC8A (peptide sequence: LAELLVSVLEQGLPPSHR, peptide start residue: 46) (UniProt Q9NPQ8)",0.144
5,"RIC8B (peptide sequence: AGEAGAIER, peptide start residue: 12) (UniProt Q9NVN3)",0.239
6,"KLHL11 (peptide sequence: RVPSSQIEC, peptide start residue: 700) (UniProt Q9NVR0)",0.42
7,"RASSF1 (peptide sequence: ALVCLDCCGPR, peptide start residue: 99) (UniProt Q9NS23)",0.0548
8,"LYRM2 (peptide sequence: LPPATLTLK, peptide start residue: 6) (UniProt Q9NU23)",0.335
9,"FANCF (peptide sequence: TQAELLLER, peptide start residue: 165) (UniProt Q9NPI8)",-0.264
10,"PREB (peptide sequence: FGQVPDQPAGLR, peptide start residue: 252) (UniProt Q9HCU5)",-0.179
11,"XPNPEP1 (peptide sequence: QMDSNWTLMK, peptide start residue: 85) (UniProt Q9NQW7)",-0.107
12,"DDX28 (peptide sequence: GSFADLGLEPR, peptide start residue: 126) (UniProt Q9NUL7)",0.466
13,"PPAN (peptide sequence: VQEGVGEGK, peptide start residue: 286) (UniProt Q9NQ55)",0.268
14,"CTPS2 (peptide sequence: LQKICSIALVGKYTK, peptide start residue: 295) (UniProt Q9NRF8)",1.03
15,"FBXO28 (peptide sequence: ATEAIDSLR, peptide start residue: 351) (UniProt Q9NVF7)",0.5
16,"CDC42SE1 (peptide sequence: LGCCVVEKPQPK, peptide start residue: 8) (UniProt Q9NRR8)",0.245
17,"NXT2 (peptide sequence: TYVDQACR, peptide start residue: 9) (UniProt Q9NPJ8)",-0.00833
18,"UniProt Q9NVM9 (peptide sequence: AHINNSEK, peptide start residue: 542)",-0.186
19,"UniProt Q9NQ88 (peptide sequence: CSLPATLSR, peptide start residue: 215)",0.0558

# Eleven entries from above in another layout.
row | Target | log2 fold change
8 | LYRM2 (peptide sequence: LPPATLTLK, peptide start residue: 6) (UniProt Q9NU23) | 0.335
9 | FANCF (peptide sequence: TQAELLLER, peptide start residue: 165) (UniProt Q9NPI8) | -0.264
10 | PREB (peptide sequence: FGQVPDQPAGLR, peptide start residue: 252) (UniProt Q9HCU5) | -0.179
11 | XPNPEP1 (peptide sequence: QMDSNWTLMK, peptide start residue: 85) (UniProt Q9NQW7) | -0.107
12 | DDX28 (peptide sequence: GSFADLGLEPR, peptide start residue: 126) (UniProt Q9NUL7) | 0.466
13 | PPAN (peptide sequence: VQEGVGEGK, peptide start residue: 286) (UniProt Q9NQ55) | 0.268
14 | CTPS2 (peptide sequence: LQKICSIALVGKYTK, peptide start residue: 295) (UniProt Q9NRF8) | 1.03
15 | FBXO28 (peptide sequence: ATEAIDSLR, peptide start residue: 351) (UniProt Q9NVF7) | 0.5
16 | CDC42SE1 (peptide sequence: LGCCVVEKPQPK, peptide start residue: 8) (UniProt Q9NRR8) | 0.245
17 | NXT2 (peptide sequence: TYVDQACR, peptide start residue: 9) (UniProt Q9NPJ8) | -0.00833
18 | UniProt Q9NVM9 (peptide sequence: AHINNSEK, peptide start residue: 542) | -0.186

# Following part.

row,Target,log2 fold change
1,"RBFOX1 (peptide sequence: MNCEREQLR, peptide start residue: 1) (UniProt Q9NWB1)",-0.0805
2,"SERINC1 (peptide sequence: SDGSLEDGDDVHR, peptide start residue: 361) (UniProt Q9NRX5)",-0.189
3,"HINT3 (peptide sequence: KHIGNCR, peptide start residue: 91) (UniProt Q9NQE9)",-0.527
4,"UniProt Q9NR83 (peptide sequence: KVYGMER, peptide start residue: 362)",-0.00118
5,"COPRS (peptide sequence: GTQSIPNDSPAR, peptide start residue: 58) (UniProt Q9NQ92)",0.0934
6,"C14orf119 (peptide sequence: FYQAVAATAGKD, peptide start residue: 129) (UniProt Q9NWQ9)",-0.114
7,"GPHN (peptide sequence: LSTASCPTPK, peptide start residue: 279) (UniProt Q9NQX3)",0.0675
8,"UniProt Q9NVR5 (peptide sequence: REPAVAVAAAAPEESADR, peptide start residue: 355)",0.48
9,"INTS10 (peptide sequence: EKTMSSDDEDCSAKGR, peptide start residue: 377) (UniProt Q9NVR2)",-0.757
10,"UniProt Q9NWY4 (peptide sequence: RRPGGEGPQCEK, peptide start residue: 8)",0.236
11,"TYW1 (peptide sequence: HHTNPVGTEWR, peptide start residue: 426) (UniProt Q9NV66)",-0.245
12,"PCMTD2 (peptide sequence: VGGILVMPLEEK, peptide start residue: 183) (UniProt Q9NV79)",0.257
13,"ARGLU1 (peptide sequence: QLLEELER, peptide start residue: 171) (UniProt Q9NWB6)",-0.166
14,"IFT57 (peptide sequence: VKQEMEEK, peptide start residue: 356) (UniProt Q9NWB7)",0.708
15,"POT1 (peptide sequence: FNSVIPVR, peptide start residue: 470) (UniProt Q9NUX5)",-0.156
16,"STARD7 (peptide sequence: AQTEGNEDSEGK, peptide start residue: 126) (UniProt Q9NQZ5)",0.512
17,"SMYD2 (peptide sequence: LYMGLEHK, peptide start residue: 391) (UniProt Q9NRG4)",0.238
18,"UniProt Q9NRC8 (peptide sequence: LVQHVVSQNCDGLHLR, peptide start residue: 160)",0.256
19,"C12orf4 (peptide sequence: ESLDSGNQNGGNDDKTK, peptide start residue: 385) (UniProt Q9NQ89)",-0.114
